Assay results as given in US8389766B2, “Insecticidal compounds” (Syngenta Crop Protection LLC, priority 2006, dated 2013).
Some of these results come from one statement about several compounds together.

Assays:
Assay type in all cases: in vivo
Diabrotica balteata = Diabrotica balteata (corn root worm) larvae test on artificial diet; details: 200 ppm (concentration in well 18 ppm), L2 larvae, larval mortality, growth regulation after 5 days
Plutella xylostella = Plutella xylostella (diamond back moth) larvae test on artificial diet; details: 200 ppm (concentration in well 18 ppm), L2 larvae, larval mortality, growth regulation after 6 days
Spodoptera littoralis = Spodoptera littoralis (Egyptian cotton leafworm) cotton leaf disc spray test; details: 200 ppm sprayed on cotton leaf discs, 5 L1 larvae; mortality, feeding behaviour, growth regulation 3 DAT
Heliothis virescens = Heliothis virescens (tobacco budworm) egg test on artificial diet; details: 200 ppm (concentration in well 18 ppm), eggs 0-24 h old on artificial diet; egg mortality, larval mortality, growth regulation after 4 days

Cc1cc(C(F)(C(F)(F)F)C(F)(F)F)cc(C)c1NC(=O)c1ccc(C#N)c(N(C)C(=O)c2ccccc2F)c1 [C1]
at least 80%: control of Diabrotica balteata (Diabrotica balteata) | control of Plutella xylostella (Plutella xylostella) | control of Spodoptera littoralis (Spodoptera littoralis) | control of Heliothis virescens (Heliothis virescens)

Cc1ccccc1C(=O)N(C)c1cc(C(=O)Nc2c(C)cc(C(F)(C(F)(F)F)C(F)(F)F)cc2C)ccc1C#N [C2]
at least 80%: control of Diabrotica balteata (Diabrotica balteata) | control of Plutella xylostella (Plutella xylostella) | control of Spodoptera littoralis (Spodoptera littoralis) | control of Heliothis virescens (Heliothis virescens)

Cc1cc(C(F)(C(F)(F)F)C(F)(F)F)cc(C)c1NC(=O)c1ccc(C#N)c(N(C)C(=O)c2ccc(C#N)cc2)c1 [C4]
at least 80%: control of Diabrotica balteata (Diabrotica balteata) | control of Plutella xylostella (Plutella xylostella) | control of Spodoptera littoralis (Spodoptera littoralis) | control of Heliothis virescens (Heliothis virescens)

Cc1cc(C(F)(C(F)(F)F)C(F)(F)F)cc(C)c1NC(=O)c1ccc(C#N)c(N(C)C(=O)c2cc(Cl)ccc2F)c1 [C8]
at least 80%: control of Diabrotica balteata (Diabrotica balteata) | control of Plutella xylostella (Plutella xylostella) | control of Spodoptera littoralis (Spodoptera littoralis) | control of Heliothis virescens (Heliothis virescens)

Cc1cc(C(F)(C(F)(F)F)C(F)(F)F)cc(C)c1NC(=O)c1ccc(C#N)c(N(C)C(=O)c2ccc(OC(F)(F)F)cc2)c1 [C11]
at least 80%: control of Diabrotica balteata (Diabrotica balteata) | control of Plutella xylostella (Plutella xylostella) | control of Spodoptera littoralis (Spodoptera littoralis) | control of Heliothis virescens (Heliothis virescens)

Cc1cc(C(F)(C(F)(F)F)C(F)(F)F)cc(C)c1NC(=O)c1ccc(C#N)c(N(C)C(=O)c2ccc(F)c(C(F)(F)F)c2)c1 [C12]
at least 80%: control of Diabrotica balteata (Diabrotica balteata) | control of Plutella xylostella (Plutella xylostella) | control of Spodoptera littoralis (Spodoptera littoralis) | control of Heliothis virescens (Heliothis virescens)

Cc1cc(C(F)(C(F)(F)F)C(F)(F)F)cc(C)c1NC(=O)c1ccc(C#N)c(N(C)C(=O)c2ccc(C(F)(F)F)cc2)c1 [C13]
at least 80%: control of Diabrotica balteata (Diabrotica balteata) | control of Plutella xylostella (Plutella xylostella) | control of Spodoptera littoralis (Spodoptera littoralis) | control of Heliothis virescens (Heliothis virescens)

Cc1cc(C(F)(C(F)(F)F)C(F)(F)F)cc(C)c1NC(=O)c1ccc(C#N)c(N(C)C(=O)c2ccccc2)c1 [C16]
at least 80%: control of Diabrotica balteata (Diabrotica balteata) | control of Plutella xylostella (Plutella xylostella) | control of Spodoptera littoralis (Spodoptera littoralis) | control of Heliothis virescens (Heliothis virescens)

Cc1cc(C(F)(C(F)(F)F)C(F)(F)F)cc(C)c1NC(=O)c1ccc(C#N)c(N(C)C(=O)c2ccc(F)cc2Cl)c1 [C19]
at least 80%: control of Diabrotica balteata (Diabrotica balteata) | control of Plutella xylostella (Plutella xylostella) | control of Spodoptera littoralis (Spodoptera littoralis) | control of Heliothis virescens (Heliothis virescens)

Cc1cc(C(F)(C(F)(F)F)C(F)(F)F)cc(C)c1NC(=O)c1ccc(C#N)c(N(C)C(=O)c2cccc(F)c2F)c1 [C21]
at least 80%: control of Diabrotica balteata (Diabrotica balteata) | control of Plutella xylostella (Plutella xylostella) | control of Spodoptera littoralis (Spodoptera littoralis) | control of Heliothis virescens (Heliothis virescens)

CCc1cc(C(F)(C(F)(F)F)C(F)(F)F)cc(CC)c1NC(=O)c1ccc(C#N)c(N(C)C(=O)c2ccccc2C(F)(F)F)c1 [C37]
at least 80%: control of Diabrotica balteata (Diabrotica balteata) | control of Plutella xylostella (Plutella xylostella) | control of Spodoptera littoralis (Spodoptera littoralis) | control of Heliothis virescens (Heliothis virescens)

Cc1cc(C(F)(C(F)(F)F)C(F)(F)F)cc(C)c1NC(=O)c1ccc(C#N)c(NC(=O)c2ccc(OC(F)(F)F)cc2)c1F [D11]
at least 80%: control of Diabrotica balteata (Diabrotica balteata) | control of Plutella xylostella (Plutella xylostella) | control of Spodoptera littoralis (Spodoptera littoralis) | control of Heliothis virescens (Heliothis virescens)

Cc1cc(C(F)(C(F)(F)F)C(F)(F)F)cc(C)c1NC(=O)c1ccc(C#N)c(NC(=O)c2ccc(F)cc2)c1F [D16]
at least 80%: control of Diabrotica balteata (Diabrotica balteata) | control of Plutella xylostella (Plutella xylostella) | control of Spodoptera littoralis (Spodoptera littoralis) | control of Heliothis virescens (Heliothis virescens)
